Holding throughout (settings): Saccharomyces cerevisiae
Data set [1] in a line: in vitro.
Data set [2] can be described thus: in vitro. This is another data set of the same source.
Data set [3] is described as follows: in vitro. The source holds these as a separate data set.
Data set [4] is described as follows: in vitro. This is another data set of the same source.

Each structure is given as a SMILES string.

For the compound `CCCCc1oc2ccccc2c1C(=O)c1cc(I)c(OCCN(CC)CC)c(I)c1` [Amiodarone], the IC50 in the data set “in vitro [1]” is above 100 µM; in “in vitro [2]”, above 100 µM; in “in vitro [3]”, 37 ± 12 µM; in “in vitro [4]” it was above 100 µM.

Usually IC50 stands for the point on the concentration scale where inhibition reaches its midpoint.

For the origin of these results see article PMC6559718 (Journal of biomolecular screening, 2016).
